Laboratory results taken from paper PMC10163288.
This is one part of the list.

B1: il2ra_site2_2erj_normal_mot_64bd02d26d05ce9f1a62b616cea0b888_0001_af2_000000029_0001_36_49_H_._HHH_b1_08099_0001_0000400004_0000001_0 (protein)
chain: SSSSSDTQELLRLVYELLTEFGLSIEQAEVLAEVAAELLQRGVSEEEIEEILERVAEELSSSSSS
B2: il2ra_site2_3nfp_sap_25_mot_32bc48042d8ba3d1c0734e77886dd373_0001_1_000000143_0001_36_50_H_._HHH_b1_00305_af2_0001_0000100004_0000001_0_0001 (protein)
chain: SSSSSDEREEEVEELLEEAKKIEDEERRRELLARAAQIAFENNNPELFFKVAEVLFKLEQSSSSS
B3: il2ra_site1_1z92_normal_mot_c9a8daa1dfea21d1414aecde54be4f54_0001_1_af2_000000024_0001_32_46_H_._0e4f66a3c4b070984708d3e1d5382b02_0001_1_af2_0001_0000100008_000 … (protein)
chain: NVAERLFEQAEELGVPPRAVVLALVSAVHAEDPRLREEAEELLERVRRGELPPEEAVRLLAELLE
B4: il2ra_site1_1z92_normal_mot_HHH_b1_00226_000000119_0001_43_56_H_._HHH_b1_02233_af2_0001_0000200029_0000001_0 (protein)
chain: SSSSTEASELLWEILEAAEQGDHEKAERLLEEAKELAEELGDEALKRQLEIFERLLEDLKSSSSS
B5: il2ra_site2_3nfp_sap_12_mot_HHH_b1_00159_af2_000000185_0001_1_18_H_._HHH_b1_03255_af2_0001_0000200007_0000001_0_0001 (protein)
chain: SNELAELANEAAQIALRLAKSPDPEAVEVALEIYRLLKEALETSDEEEAKEILEEAVELARRYSS
B6: il2ra_site1_3nfp_normal_mot_HHH_b1_06312_000000199_0001_1_18_H_._HHH_b1_02974_af2_0001_0000100005_0000001_0_af2pred_0001_af2pred (protein)
chain: SSSDLEEIEELIRKAHKLFKNGNLEEAEEVLREAEEIAKEANSEVTEKFIQALLRILERQKSSSS
B7: il2ra_site1_2b5i_normal_mot_f5ff40796168375b462bec8614a1db4a_0001_1_000000138_0001_53_65_H_._HHH_b2_05754_af2_0001_0000200008_0000001_0_af2pred_dldesign_0_af2pr … (protein)
chain: SSSSSKEDKREQVEELLEKARKEKDKNLARKLLLLARRIAKKINDEELIARIDEELAKLGSSSSS
B8: il2ra_site1_3nfp_normal_mot_dc5ea9c2c6cb1649bd85fc05aca2b482_0001_af2_000000257_0001_18_32_H_._HHH_b2_06596_af2_0001_0000300003_0000001_0_af2pred_0001_af2pred (protein)
chain: SSSSDEVEERVRELLEEAEKAAEEGDPRLVAELLREALKLASENQNPELWKLVLRVIRELASSSS
B9: il2ra_site1_3nfp_normal_mot_ems_3hC_921_af2_000000143_0001_22_40_H_._HHH_b2_03092_0001_0000100006_0000001_0 (protein)
chain: SSSSSEEVREAQELSREVLKLIREGDREEAEELLKELERLAREANDPIAEKLVEQLERLLGSSSS
B10: il2ra_site1_1z92_normal_mot_HHH_b1_07944_000000047_0001_39_52_H_._HHH_b1_07427_0001_0000200021_0000001_0_af2pred_0001_af2pred (protein)
chain: SSSSSEIQEEIDRLWKEASHIPDREEVRKLIEEALELAEEAGDENVFRDLRRFLERLKRGSSSSS
B11: il2ra_site2_2erj_sap_21_mot_HHH_b1_01555_af2_000000123_0001_22_39_H_._HHH_b1_05014_af2_0001_0000100013_0000001_1_0001 (protein)
chain: SSSSDEIEELLEKAKELLEKGNPEEAEEVLRKAAHAAFENNDFEAFREIAELLREVAQLEASSSS
B12: il2ra_site1_3nfp_sap_15_mot_HHH_b2_07409_000000012_0001_1_20_H_._16934e337390fad51c35c10e6cd388ee_0001_1_0001_0000200030_0000001_0_0001 (protein)
chain: SSSSDVEEEVREILEQIEELLENGNPEEAAKLAEELYRLIAEAKDQEAADLLYEFLHRIISSSSS
B13: il2ra_site1_3nfp_normal_mot_HHH_b1_01080_af2_000000019_0001_3_16_H_._HHH_b2_03166_af2_0001_0000500008_0000001_1_af2pred_0001_af2pred_1 (protein)
chain: SSSSTKEAFEIAELAREIAEELGVDEKEIRLAAELALKLVARGVSEEEIEEILRELLEELSSSSS
B14: il2ra_site2_3nfp_normal_mot_HHH_b2_07498_000000057_0001_1_14_H_._HHH_b2_05183_0001_0000300021_0000001_0 (protein)
chain: SSSSDREEVEELLKEAEELLEEGNPEEAFQVVQKASELAAKLNDPELARAVLELYELLKRSSSSS
B15: il2ra_site2_3nfp_sap_25_mot_32bc48042d8ba3d1c0734e77886dd373_0001_1_000000143_0001_36_50_H_._HHH_b2_00933_0001_0001000014_0000001_0_0001_af2pred_0001_1_af2pred_ … (protein)
chain: SSSSSEEEEKIRKALEAVREAVERGDEELFRKLAIEAAEIIRENNDAEAFFILAELWRELGSSSS
B16: il2ra_site2_2erj_sap_26_mot_89dc1dc23437faef961419e82e151d9c_0001_000000098_0001_15_32_H_._HHH_b2_02643_af2_0001_0000300022_0000001_0_0001 (protein)
chain: SSSSDAIEELAEALIRTLERAGDPESAREVQELLEELEEKGDPRVEEELARLIWELMREHFSSSS
B17: il2ra_site2_3nfp_normal_mot_HHH_b1_00660_af2_000000090_0001_40_57_H_._HHH_b2_02632_0001_0000100016_0000001_0_af2pred_0001_af2pred_1_swapped (protein)
chain: SSSSSEEERVKRLLEEAEELKKEGDEEEVRKLLAEASLIAYEAGDFELFALISEFIERLLSSSSS
B18: il2ra_site1_3nfp_sap_12_mot_HHH_b2_07201_af2_000000232_0001_1_20_H_._HHH_b2_06321_0001_0000100001_0000001_1_0001_af2pred_0001_af2pred (protein)
chain: SRAELFAEAVEEIAELAGVPHVEVEVSNGEVRVTFEGDSKRAKIASRFVEELARLFGIKVEVEVR
B19: il2ra_site1_1z92_normal_mot_HHH_b2_02540_000000162_0001_1_16_H_._HHH_b1_06172_0001_0000600037_0000001_0 (protein)
chain: SSSSSKYEKSIRWALRLLEAAARTRNERLFEFVVEQIRLLVKQNNNEELEEELERLEREFRSSSS
B20: il2ra_site1_3nfp_normal_mot_HHH_b2_03135_af2_000000097_0001_42_55_H_._HHH_b2_04342_af2_0001_0000300016_0000001_0 (protein)
chain: SSSSDDWVRRLLEIDREIIELIREGDKEEARKLVEELEELAEELNDKIALRLAEQLKENLNSSSS
B21: il2ra_site1_2b5i_normal_mot_2cbe48e66a1f39b3fed734b245ab0a04_0001_000000015_0001_17_31_H_._HHH_b2_02186_0001_0000300010_0000001_0_af2pred_dldesign_0_af2pred (protein)
chain: SSSSSSNRARVEALLERARKLEDPFELSKVLSEALFVARQAKDEELIARVKAVWEELASSSSSSS
B22: il2ra_site2_2erj_sap_25_mot_HHH_b1_06138_000000259_0001_40_57_H_._HHH_b1_05292_0001_0000200002_0000001_0_0001 (protein)
chain: SSSSSEDLHEAYEIADRINELLQRGDPEEVEELLKELERLAERLKSPNLEEIVEWLRKLLDSSSS
B23: il2ra_site1_1z92_sap_14_mot_HHH_b1_00199_000000288_0001_44_57_H_._bd3138152b83fbdbd115440ed3e3a24f_0001_af2_0001_0000400048_0000001_0_0001 (protein)
chain: SVEEDIRAALKLGLSPENIVKALLRALAWVHKIPPEEAKELLEELLKELNTPVAEEVLEALKELK
B24: il2ra_site2_2erj_normal_mot_HHH_b1_08185_000000063_0001_41_55_H_._HHH_b1_04971_af2_0001_0000600015_0000001_0 (protein)
chain: SSSSSDSAEEALELAKEAYEKGDRSEVELILRYLELSLEDANDPRVEEAYELVEELLEELSSSSS

Each binder was assayed against il2ra, P01589 (assay: yeast display titration).

Apparent Kd, inactive:
B1 no binding seen
B2 no binding seen
B3 no binding seen
B4 no binding seen
B5 no binding seen
B6 no binding seen
B7 no binding seen
B8 no binding seen
B9 no binding seen
B10 no binding seen
B11 no binding seen
B12 no binding seen
B13 no binding seen
B14 no binding seen
B15 no binding seen
B16 no binding seen
B17 no binding seen
B18 no binding seen
B19 no binding seen
B20 no binding seen
B21 no binding seen
B22 no binding seen
B23 no binding seen
B24 no binding seen

Random excerpt: two records from the list, in no set order.
Apparent Kd, inactive:
B19 no binding seen
B15 no binding seen
